Patent publication US20050118290A1, “Compositions and method for treatment of steroid/nuclear receptor-mediated diseases” (University of Singapore, priority 2003, published 2005)
“And” between values parts separate entries of the source, which are not always exact repeats. Identical values can stand only once. At least one compound was matched to its structure with a doubt left.

Biological target: T1, PPARγ (Homo sapiens, UniProt P37231)
T1 construct: expressed in transfected cells; host or cells: HeLa
T1 sequence (P37231 238-503 limits assumed): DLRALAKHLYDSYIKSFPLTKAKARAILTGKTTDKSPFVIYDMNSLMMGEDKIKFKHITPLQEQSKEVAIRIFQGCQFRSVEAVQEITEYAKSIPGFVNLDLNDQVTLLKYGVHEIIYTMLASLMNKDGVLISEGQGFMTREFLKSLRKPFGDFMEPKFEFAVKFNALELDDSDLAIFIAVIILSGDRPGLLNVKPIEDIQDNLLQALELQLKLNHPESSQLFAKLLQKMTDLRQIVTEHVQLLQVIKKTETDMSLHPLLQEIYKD
Assay: Chimeric Gal4DBD-PPARγLBD receptor / UASg-luciferase reporter gene assay in HeLa cells
Type: cell-based
Conditions: Example 4
From the text: In an example of such a reporter gene assay, a plasmid containing chimeric Ga14DBD-PPARLBD receptor cDNA was constructed by excising the ligand binding domain (LBD) of full length PPARγ and PPARα and ligating the resulting fragments in frame to the Ga14-DNA binding domain (DBD) of Saccharomyces cerevisiae in a pM vector (Clontech). Specifically, to construct Ga14DBD-PPARγLBD plasmid, pSG5 expression vector (Stratagene) containing full length PPARγ was excised with Rsa I and blunt ligated to Hind III site of pMGa14DBD expression plasmid (Clontech). To construct Ga14DBD-PPARαLBD plasmid, pSG5 expression vector (Stratagene) containing full length PPARα was excised with BstU I and BamH I and blunt-end ligated in frame to BamH I site of pMGa14DBD expression plasmid (Clontech). […] Ga14 DBD binds very strongly to the exogenous UASg promoter, thereby giving rise to a sensitive and specific assay. To measure PPARγ and PPARα agonist activity, HeLa cells were grown in 24-well microtiter plates and then transiently co-transfected with the two plasmids (chimeric PPAR receptor and UASg reporter gene) using Lipofectamine (Invitrogen). […] Concurrently, cells exposed to known PPAR ligands served as positive controls. Replicate wells, exposed to the vehicle solvent (i.e., ethanol or methanol) in which herbal extracts were dissolved, were used as negative controls. […]

In the case of `CC1(COc2ccc(CC3SC(=O)NC3=O)cc2)CCCCC1` (stereo not shown) [ciglitazone], the “dose of maximal PPARγ activity” value is reported as 3 ×10^−6 g/mL and 10 ×10^−6 M.
